Experimental data from patent US8921398B2 (Boehringer Ingelheim International GmbH, priority 2011, dated 2014).

By UniProt entry, the sequences of proteins in these tests, tags left out. Chains listed by the source or under a name are the forms on record and can include a tag or linker. Residues count along the entry.
UniProt Q8TDV5, 2-335 with tags or gaps S329A/T327A limits assumed: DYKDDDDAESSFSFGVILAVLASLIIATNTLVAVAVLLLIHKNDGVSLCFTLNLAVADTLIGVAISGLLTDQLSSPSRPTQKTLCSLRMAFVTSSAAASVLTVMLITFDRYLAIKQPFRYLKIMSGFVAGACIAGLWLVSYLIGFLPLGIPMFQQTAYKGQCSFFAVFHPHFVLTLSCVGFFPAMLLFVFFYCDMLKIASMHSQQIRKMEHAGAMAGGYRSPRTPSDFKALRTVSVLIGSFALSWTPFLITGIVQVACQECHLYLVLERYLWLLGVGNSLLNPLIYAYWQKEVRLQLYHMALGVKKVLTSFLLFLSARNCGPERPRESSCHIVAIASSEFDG

Target: mutant form of the human GPR119 receptor (Homo sapiens, UniProt Q8TDV5, S329A/T327A)
Test: LANCE cAMP-384 assay in HEK293 cells stably expressing a mutant form of the human GPR119 receptor
Conditions: cAMP accumulation, GPR119 stable HEK293 cells, LANCE kit, 20 min at 37° C.
Description: Quantitative detection of cAMP accumulation from cells expressing human GPR119 receptor is achieved using Perkin Elmer's LANCE cAMP-384 Kit (Cat#AD0264) according to the manufacturer's protocol. Briefly, HEK293 cells stably expressing a mutant form of the human GPR119 receptor as assay tool (Methionine 1 replaced with the amino acid sequence […] , and T327 & S329 changed to alanines; SEQ ID No. 1) are grown to 50-70% confluency in cell culture media (DMEM, 10% heat inactivated Fetal Bovine Serum, 50 I.U./mL penicillin, 50 μg/mL streptomycin, 10 mM HEPES, 20 μg/mL G418 Sulfate). On the day of the assay, GPR119 stable HEK293 cells are lifted from the tissue culture plate and 1000 cells/well are incubated along with various concentrations of test compounds for 20 min at 37° C. Detection Buffer (50 mM HEPES, 10 mM calcium chloride, 0.35% Triton X-100, 1 mg/mL BSA) containing cAMP-specific antibody is then added to all wells and allowed to equilibrate in the dark for 10 minutes at room temperature. Upon equilibration, Detection Buffer containing europium-labeled cAMP tracer complex is added to all wells and allowed to react for 1 hour at room temperature. After 1 hour, bound europium-labeled cAMP tracer is measured using a Perkin Elmer Envision plate reader. The quantity of cAMP generated in each well is derived from a standard curve. […]

| Structure (SMILES) | EC50 |
| --- | --- |
| Cc1nccn1-c1cnc(C(=O)N(C2CC2)C2CCN(c3ncc(C(F)(F)F)cc3F)CC2)cn1 | 16 nM |
| Cc1nccn1-c1ncc(C(=O)N(C2CC2)[C@@H]2CCN(c3ccc(C(F)(F)F)cn3)C[C@@H]2F)cn1 (single isomer, unassigned) | 6 nM |

Structures were worked out from names or drawings and are uncertain.
